Assay results as given in patent US20220074941A1, “HSP90 COMBINATION THERAPY” (Sloan-Kettering Institute for Cancer Research, priority 2011, published 2022).

B1: PANK4 (protein, UniProt Q9NVE7 2-773, looked up)
4'-phosphopantetheine …: AECGASGSGSSGDSLDKSITLPPDEIFRNLENAKRFAIDIGGSLTKLAYYSTVQHKVAKVRSFDHSGKDTEREHEPPYEISVQEEITARLHFIKFENTYIEACLDFIKDHLVNTETKVIQATGGGAYKFKDLIEEKLRLKVDKEDVMTCLIKGCNFVLKNIPHEAFVYQKDSDPEFRFQTNHPHIFPYLLVNIGSGVSIVKVETEDRFEWVGGSSIGGGTFWGLGALLTKTKKFDELLHLASRGQHSNVDMLVRDVYGGAHQTLGLSGNLIASSFGKSATADQEFSKEDMAKSLLHMISNDIGQLACLHARLHSLDRVYFGGFFIRGHPVTMRTITYSINFFSKGEVQALFLRHEGYLGAIGAFLKGAEQDNPNQYSWGENYAGSSGLMSASPELGPAQRARSGTFDLLEMDRLERPLVDLPLLLDPPSYVPDTVDLTDDALARKYWLTCFEEALDGVVKRAVASQPDSVDAAERAEKFRQKYWNKLQTLRQQPFAYGTLTVRSLLDTREHCLNEFNFPDPYSKVKQRENGVALRCFPGVVRSLDALGWEERQLALVKGLLAGNVFDWGAKAVSAVLESDPYFGFEEAKRKLQERPWLVDSYSEWLQRLKGPPHKCALIFADNSGIDIILGVFPFVRELLLRGTEVILACNSGPALNDVTHSESLIVAERIAGMDPVVHSALQEERLLLVQTGSSSPCLDLSRLDKGLAALVRERGADLVVIEGMGRAVHTNYHAALRCESLKLAVIKNAWLAERLGGRLFSVIFKYEVPAE
B2: CSNK1A1 (protein, UniProt P48729 2-337, looked up)
Casein kinase I isoform alpha: ASSSGSKAEFIVGGKYKLVRKIGSGSFGDIYLAINITNGEEVAVKLESQKARHPQLLYESKLYKILQGGVGIPHIRWYGQEKDYNVLVMDLLGPSLEDLFNFCSRRFTMKTVLMLADQMISRIEYVHTKNFIHRDIKPDNFLMGIGRHCNKLFLIDFGLAKKYRDNRTRQHIPYREDKNLTGTARYASINAHLGIEQSRRDDMESLGYVLMYFNRTSLPWQGLKAATKKQKYEKISEKKMSTPVEVLCKGFPAEFAMYLNYCRGLRFEEAPDYMYLRQLFRILFRTLNHQYDYTFDWTMLKQKAAQQAASSSGQGQQAQTPTGKQTDKTKSNMKGF
B3: RIOK2 (protein, UniProt Q9BVS4 1-552, looked up)
Serine/threonine-protein …: MGKVNVAKLRYMSRDDFRVLTAVEMGMKNHEIVPGSLIASIASLKHGGCNKVLRELVKHKLIAWERTKTVQGYRLTNAGYDYLALKTLSSRQVVESVGNQMGVGKESDIYIVANEEGQQFALKLHRLGRTSFRNLKNKRDYHKHRHNVSWLYLSRLSAMKEFAYMKALYERKFPVPKPIDYNRHAVVMELINGYPLCQIHHVEDPASVYDEAMELIVKLANHGLIHGDFNEFNLILDESDHITMIDFPQMVSTSHPNAEWYFDRDVKCIKDFFMKRFSYESELFPTFKDIRREDTLDVEVSASGYTKEMQADDELLHPLGPDDKNIETKEGSEFSFSDGEVAEKAEVYGSENESERNCLEESEGCYCRSSGDPEQIKEDSLSEESADARSFEMTEFNQALEEIKGQVVENNSVTEFSEEKNRTENYNRQDGQRVQGGVPAGSDEYEDECPHLIALSSLNREFRPFRDEENVGAMNQYRTRTLSITSSGSAVSCSTIPPELVKQKVKRQLTKQQKSAVRRRLQKGEANIFTKQRRENMQNIKSSLEAASFWGE
B4: PRKAA1 (protein, UniProt Q13131 1-559, looked up)
5'-AMP-activated protein …: MRRLSSWRKMATAEKQKHDGRVKIGHYILGDTLGVGTFGKVKVGKHELTGHKVAVKILNRQKIRSLDVVGKIRREIQNLKLFRHPHIIKLYQVISTPSDIFMVMEYVSGGELFDYICKNGRLDEKESRRLFQQILSGVDYCHRHMVVHRDLKPENVLLDAHMNAKIADFGLSNMMSDGEFLRTSCGSPNYAAPEVISGRLYAGPEVDIWSSGVILYALLCGTLPFDDDHVPTLFKKICDGIFYTPQYLNPSVISLLKHMLQVDPMKRATIKDIREHEWFKQDLPKYLFPEDPSYSSTMIDDEALKEVCEKFECSEEEVLSCLYNRNHQDPLAVAYHLIIDNRRIMNEAKDFYLATSPPDSFLDDHHLTRPHPERVPFLVAETPRARHTLDELNPQKSKHQGVRKAKWHLGIRSQSRPNDIMAEVCRAIKQLDYEWKVVNPYYLRVRRKNPVTSTYSKMSLQLYQVDSRTYLLDFRSIDDEITEAKSGTATPQRSGSVSNYRSCQRSDSDAEAQGKSSEVSLTSSVTSLDSSPVDLTPRPGSHTIEFFEMCANLIKILAQ
B5: SCYL1 (protein, UniProt Q96KG9 1-808, looked up)
N-terminal kinase-like protein: MWFFARDPVRDFPFELIPEPPEGGLPGPWALHRGRKKATGSPVSIFVYDVKPGAEEQTQVAKAAFKRFKTLRHPNILAYIDGLETEKCLHVVTEAVTPLGIYLKARVEAGGLKELEISWGLHQIVKALSFLVNDCSLIHNNVCMAAVFVDRAGEWKLGGLDYMYSAQGNGGGPPRKGIPELEQYDPPELADSSGRVVREKWSADMWRLGCLIWEVFNGPLPRAAALRNPGKIPKTLVPHYCELVGANPKVRPNPARFLQNCRAPGGFMSNRFVETNLFLEEIQIKEPAEKQKFFQELSKSLDAFPEDFCRHKVLPQLLTAFEFGNAGAVVLTPLFKVGKFLSAEEYQQKIIPVVVKMFSSTDRAMRIRLLQQMEQFIQYLDEPTVNTQIFPHVVHGFLDTNPAIREQTVKSMLLLAPKLNEANLNVELMKHFARLQAKDEQGPIRCNTTVCLGKIGSYLSASTRHRVLTSAFSRATRDPFAPSRVAGVLGFAATHNLYSMNDCAQKILPVLCGLTVDPEKSVRDQAFKAIRSFLSKLESVSEDPTQLEEVEKDVHAASSPGMGGAAASWAGWAVTGVSSLTSKLIRSHPTTAPTETNIPQRPTPEGVPAPAPTPVPATPTTSGHWETQEEDKDTAEDSSTADRWDDEDWGSLEQEAESVLAQQDDWSTGGQVSRASQVSNSDHKSSKSPESDWSSWEAEGSWEQGWQEPSSQEPPPDGTRLASEYNWGGPESSDKGDPFATLSARPSTQPRPDSWGEDNWEGLETDSRQVKAELARKKREERRREMEAKRAERKVAKGPMKLGARKLD
B6: PRKD2 (protein)
chain: MATAPSYPAGLPGSPGPGSPPPPGGLELQSPPPLLPQIPAPGSGVSFHIQIGLTREFVLLPAASELAHVKQLACSIVDQKFPECGFYGLYDKILLFKHDPTSANLLQLVRSSGDIQEGDLVEVVLSASATFEDFQIRPHALTVHSYRAPAFCDHCGEMLFGLVRQGLKCDGCGLNYHKRCAFSIPNNCSGARKRRLSSTSLASGHSVRLGTSESLPCTAEELSRSTTELLPRRPPSSSSSSSASSYTGRPIELDKMLLSKVKVPHTFLIHSYTRPTVCQACKKLLKGLFRQGLQCKDCKFNCHKRCATRVPNDCLGEALINGDVPMEEATDFSEADKSALMDESEDSGVIPGSHSENALHASEEEEGEGGKAQSSLGYIPLMRVVQSVRHTTRKSSTTLREGWVVHYSNKDTLRKRHYWRLDCKCITLFQNNTTNRYYKEIPLSEILTVESAQNFSLVPPGTNPHCFEIVTANATYFVGEMPGGTPGGPSGQGAEAARGWETAIRQALMPVILQDAPSAPGHAPHRQASLSISVSNSQIQENVDIATVYQIFPDEVLGSGQFGVVYGGKHRKTGRDVAVKVIDKLRFPTKQESQLRNEVAILQSLRHPGIVNLECMFETPEKVFVVMEKLHGDMLEMILSSEKGRLPERLTKFLITQILVALRHLHFKNIVHCDLKPENVLLASADPFPQVKLCDFGFARIIGEKSFRRSVVGTPAYLAPEVLLNQGYNRSLDMWSVGVIMYVSLSGTFPFNEDEDINDQIQNAAFMYPASPWSHISAGAIDLINNLLQVKMRKRYSVDKSLSHPWLQEYQTWLDLRELEGKMGERYITHESDDARWEQFAAEHPLPGSGLPTDRDLGGACPPQDHDMQGLAERISVL

Key:
[1] = system: Hsp90 complexes in Mia-PaCa-2 cell extract; experiment: Nano-LC-MS/MS of PU-beads pull-downs; assay type: binding, human; conditions: protein identified in PU-beads pull-down of Mia-Paca 2 extract; QSTAR-Elite QTof MS
Description: Lysates prepared as mentioned above were first pre-cleaned by incubation with control beads overnight at 4° C. […] Beads were washed with lysis buffer, proteins eluted by boiling in 2% SDS, separated on a denaturing gel and Coomassie stained according to manufacturer's procedure (Biorad). […] Analyses of the batch purified pools were done using a QSTAR-Elite hybrid quadrupole time-of-flight mass spectrometer (QTof MS) (AB/MDS Sciex), equipped with a nano spray ion source. Peptide mixtures (in 20 μL) are loaded onto a trapping guard column (0.3×5-mm PepMap C18 100 cartridge from LC Packings) using an Eksigent nano MDLC system (Eksigent Technologies, Inc) at a flow rate of 20 μL/min. […] Electrospray ionization (ESI) needle voltage was set at about 1800 V. The mass analyzer is operated in automatic, data-dependent MS/MS acquisition mode, with the threshold set to 10 counts per second of doubly or triply charged precursor ions selected for fragmentation scans. Survey scans of 0.25 sec are recorded from 400 to 1800 amu; up to 3 MS/MS scans are then collected sequentially for the selected precursor ions, recording from 100 to 1800 amu. The collision energy is automatically adjusted in accordance with the m/z value of the precursor ions selected for MS/MS. Selected precursor ions are excluded from repeated selection for 60 sec after the end of the corresponding fragmentation duty cycle. […] One missed tryptic cleavage site was allowed, precursor ion mass tolerance=0.4 Da fragment ion mass tolerance=0.4 Da, protein modifications were allowed for Met-oxide, Cys-acrylamide and N-terminal acetylation. MudPit scoring was typically applied with ‘require bold red’ activated, and using significance threshold score p<0.05. Unique peptide counts (or ‘spectral counts’) and percent sequence coverages for all identified proteins were exported to Scaffold Proteome Software (version 2_06_01, www.proteomesoftware.com) for further bioinformatic analysis (Table 5a). Using output from Mascot, Scaffold validates, organizes, and interprets mass spectrometry data, allowing more easily to manage large amounts of data, to compare samples, and to search for protein modifications.

[2] = system: Hsp90 complexes in K562 cell extract; experiment: Nano-LC-MS/MS of PU-beads pull-downs; assay type: binding; conditions: protein identified in PU-beads pull-down of K562 extract, QSTAR-Elite QTof MS
Method in brief: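 Lysates pre-cleared overnight at 4 °C with control beads, then pulled down with PU-beads or control beads; eluted proteins (2% SDS boil) gel-separated and analysed by nano LC-MS/MS on a QTof. Mascot identification (p<0.05), spectral counts and sequence coverage evaluated in Scaffold.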

Molecule | Number of Assigned Spectra, Mia-Paca 2 [1] | Number of Assigned Spectra, K562 Prep 1 [2] | Number of Assigned Spectra, K562 Prep 2 [2]
B1 | 0 | 7 | 7
B2 | 1 | 5 | 0
B3 | 1 | 7 | 6
B4 | 1 | 11 | 6
B5 | 0 | 8 | 2
B6 | 0 | 4 | 0
